Some results were stated once for a whole list of compounds, not compound by compound.
Experiments:
Type in all cases: in vivo
Botrytis cinerea [1] = test: Action against Botrytis cinerea/apple (Botrytis on apple fruits); conditions: 0.02% active ingredient, 30 μl droplets in drilled holes; apple fruit cv. Golden Delicious; inoculated 2 hours after application; assessed after 7 days
Botrytis cinerea [2] = test: Action against Botrytis cinerea/grape (Botrytis on grapes); conditions: 0.02% active ingredient, spray; grape seedlings cv. Gutedel; inoculated 2 days after application; assessed after 4 days
Altemaria solani = test: Action against Altemaria solani/tomato (early blight on tomatoes); conditions: 0.02% active ingredient, spray; tomato plants cv. Roter Gnom; inoculated 2 days after application; assessed after 3 days
Erysiphe graminis = test: Action against Erysiphe graminis/barley (powdery mildew on barley); conditions: 0.02% active ingredient, spray; barley plants cv. Express; inoculated 1 day after application; assessed after 6 days
Venturia inaequalis = test: Action against Venturia inaequalis/apple (scab on apple); conditions: 0.02% active ingredient, spray; apple seedlings cv. McIntosh; inoculated 1 day after application; assessed after 4+4+4 days incubation
Pyrenophora teres = test: Action against Pyrenophora teres/barley (net blotch on barley); conditions: 0.02% active ingredient, spray; barley plants cv. Express; inoculated 2 days after application; assessed 4 days after inoculation
Podosphaera leucotricha = test: Action against Podosphaera leucotricha/apple (powdery mildew on apple); conditions: 0.02% active ingredient, spray; apple seedlings cv. McIntosh; inoculated 1 day after application; assessed after 12 days
Uncinula necator = test: Action against Uncinula necator/grape (powdery mildew on grape); conditions: 0.02% active ingredient, spray; grape seedlings cv. Gutedel; inoculated 1 day after application; assessed after 7 days
Botrytis cinerea [3] = test: Action against Botrytis cinerea/tomato (Botrytis on tomatoes); conditions: 0.02% active ingredient, spray; tomato plants cv. Roter Gnom; inoculated 2 days after application; assessed after 4 days
Septoria tritici = test: Action against Septoria tritici/wheat (Septoria leaf spot on wheat); conditions: 0.02% active ingredient, spray; wheat plants cv. Riband; inoculated 1 day after application; assessed 18 days after inoculation

Measured: infestation (disease incidence)

C/C(=C\c1ccc(Cl)cc1)NC(=O)c1cn(C)nc1C(F)F [1.007 (E-from), 3-difluoromethyl-1-methyl-1H-pyrazole-4-carboxylic acid [(E)-2-(4-chlorophenyl)-1-methyl-vinyl]-amide]
< 20%: all assays above

Cn1cc(C(=O)NC2=C(c3ccc(Cl)cc3)CCC2)c(C(F)F)n1 [Compound 1.024, 3-difluoromethyl-1-methyl-1H-pyrazole-4-carboxylic acid [2-(4-chloro-phenyl)-cyclopent-1-enyl]-amide]
< 20%: all assays above

Cn1cc(C(=O)NC2=C(c3ccc(Cl)cc3)CCCC2)c(C(F)(F)F)n1 [Compound 2.025, 1-Methyl-3-trifluoromethyl-1H-pyrazole-4-carboxylic acid [2-(4-chlorophenyl)-cyclohex-1-enyl]-amide]
< 20%: all assays above

Source: patent publication US8188088B2, “Ethenyl carboxamide derivatives useful as microbiocides” (Syngenta Participations AG, priority 2006, dated 2012)
